Patent US11731939B1, “Indole-based chalcone compounds as antibacterial agents” (KING FAISAL UNIVERSITY, priority 2023, dated 2023)
Converted amounts (≈) assume the structure as drawn.

Key:
[1] = system: Staphylococcus aureus ATCC 29213; test: Antibacterial activity, dilution susceptibility test (CLSI M07-A10); type: cell-based; conditions: ATCC29213
[2] = system: Staphylococcus aureus ATCC BAA-1556 (MERSA resistant); test: as above; type: cell-based; conditions: ATCCBAA1556

With `CN[C@H](CC(C)C)C(=O)N[C@H]1C(=O)N[C@@H](CC(N)=O)C(=O)N[C@H]2C(=O)N[C@H]3C(=O)N[C@H](C(=O)N[C@H](C(=O)O)c4cc(O)cc(O)c4-c4cc3ccc4O)[C@H](O)c3ccc(c(Cl)c3)Oc3cc2cc(c3O[C@@H]2O[C@H](CO)[C@@H](O)[C@H](O)[C@H]2O[C@H]2C[C@](C)(N)[C@H](O)[C@H](C)O2)Oc2ccc(cc2Cl)[C@H]1O` [Vancomycin, reference compound] the MIC [1] was 1 µg/mL (≈ 0.69 µM) and the MIC [2] was 1 µg/mL (≈ 0.69 µM).
